Measured values reported in the supplement of paper PMC11732987, “Enantioselective OTUD7B fragment discovery through chemoproteomics screening and high-throughput optimisation” (Communications Chemistry, 2025).
The list shows a part of the results. The data scatter; read single values as rough.

Chains of the proteins cited; added tags and fusions are not shown. Lines headed by an entry give the natural chain unless they say otherwise; changes in a name come on top. Residues count along the entry.
UniProt Q86UV5: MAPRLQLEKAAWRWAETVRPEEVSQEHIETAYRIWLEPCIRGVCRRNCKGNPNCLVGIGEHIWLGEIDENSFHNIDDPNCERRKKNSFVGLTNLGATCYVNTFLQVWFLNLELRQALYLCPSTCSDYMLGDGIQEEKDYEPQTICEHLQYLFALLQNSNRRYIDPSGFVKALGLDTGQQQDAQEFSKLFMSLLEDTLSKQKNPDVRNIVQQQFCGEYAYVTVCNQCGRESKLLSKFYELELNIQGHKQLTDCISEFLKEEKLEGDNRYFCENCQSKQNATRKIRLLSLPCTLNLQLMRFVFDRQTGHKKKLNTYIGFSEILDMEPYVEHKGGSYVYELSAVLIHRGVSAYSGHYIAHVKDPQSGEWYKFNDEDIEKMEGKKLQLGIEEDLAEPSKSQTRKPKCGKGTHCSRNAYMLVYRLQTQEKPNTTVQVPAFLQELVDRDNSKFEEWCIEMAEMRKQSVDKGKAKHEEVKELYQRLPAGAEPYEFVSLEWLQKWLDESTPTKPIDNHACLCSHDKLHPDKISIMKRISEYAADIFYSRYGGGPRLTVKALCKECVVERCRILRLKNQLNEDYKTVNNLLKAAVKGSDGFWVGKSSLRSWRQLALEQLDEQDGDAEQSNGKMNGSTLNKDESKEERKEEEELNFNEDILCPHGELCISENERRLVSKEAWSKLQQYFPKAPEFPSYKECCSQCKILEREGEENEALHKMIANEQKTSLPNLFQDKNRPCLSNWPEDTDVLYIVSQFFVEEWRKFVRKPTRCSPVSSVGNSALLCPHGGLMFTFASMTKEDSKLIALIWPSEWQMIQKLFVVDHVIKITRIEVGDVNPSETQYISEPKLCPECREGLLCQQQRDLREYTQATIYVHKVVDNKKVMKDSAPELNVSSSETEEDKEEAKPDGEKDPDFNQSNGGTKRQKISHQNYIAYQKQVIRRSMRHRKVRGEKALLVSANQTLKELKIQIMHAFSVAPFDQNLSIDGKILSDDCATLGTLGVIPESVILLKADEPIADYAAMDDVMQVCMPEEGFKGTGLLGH
UniProt Q70EL1: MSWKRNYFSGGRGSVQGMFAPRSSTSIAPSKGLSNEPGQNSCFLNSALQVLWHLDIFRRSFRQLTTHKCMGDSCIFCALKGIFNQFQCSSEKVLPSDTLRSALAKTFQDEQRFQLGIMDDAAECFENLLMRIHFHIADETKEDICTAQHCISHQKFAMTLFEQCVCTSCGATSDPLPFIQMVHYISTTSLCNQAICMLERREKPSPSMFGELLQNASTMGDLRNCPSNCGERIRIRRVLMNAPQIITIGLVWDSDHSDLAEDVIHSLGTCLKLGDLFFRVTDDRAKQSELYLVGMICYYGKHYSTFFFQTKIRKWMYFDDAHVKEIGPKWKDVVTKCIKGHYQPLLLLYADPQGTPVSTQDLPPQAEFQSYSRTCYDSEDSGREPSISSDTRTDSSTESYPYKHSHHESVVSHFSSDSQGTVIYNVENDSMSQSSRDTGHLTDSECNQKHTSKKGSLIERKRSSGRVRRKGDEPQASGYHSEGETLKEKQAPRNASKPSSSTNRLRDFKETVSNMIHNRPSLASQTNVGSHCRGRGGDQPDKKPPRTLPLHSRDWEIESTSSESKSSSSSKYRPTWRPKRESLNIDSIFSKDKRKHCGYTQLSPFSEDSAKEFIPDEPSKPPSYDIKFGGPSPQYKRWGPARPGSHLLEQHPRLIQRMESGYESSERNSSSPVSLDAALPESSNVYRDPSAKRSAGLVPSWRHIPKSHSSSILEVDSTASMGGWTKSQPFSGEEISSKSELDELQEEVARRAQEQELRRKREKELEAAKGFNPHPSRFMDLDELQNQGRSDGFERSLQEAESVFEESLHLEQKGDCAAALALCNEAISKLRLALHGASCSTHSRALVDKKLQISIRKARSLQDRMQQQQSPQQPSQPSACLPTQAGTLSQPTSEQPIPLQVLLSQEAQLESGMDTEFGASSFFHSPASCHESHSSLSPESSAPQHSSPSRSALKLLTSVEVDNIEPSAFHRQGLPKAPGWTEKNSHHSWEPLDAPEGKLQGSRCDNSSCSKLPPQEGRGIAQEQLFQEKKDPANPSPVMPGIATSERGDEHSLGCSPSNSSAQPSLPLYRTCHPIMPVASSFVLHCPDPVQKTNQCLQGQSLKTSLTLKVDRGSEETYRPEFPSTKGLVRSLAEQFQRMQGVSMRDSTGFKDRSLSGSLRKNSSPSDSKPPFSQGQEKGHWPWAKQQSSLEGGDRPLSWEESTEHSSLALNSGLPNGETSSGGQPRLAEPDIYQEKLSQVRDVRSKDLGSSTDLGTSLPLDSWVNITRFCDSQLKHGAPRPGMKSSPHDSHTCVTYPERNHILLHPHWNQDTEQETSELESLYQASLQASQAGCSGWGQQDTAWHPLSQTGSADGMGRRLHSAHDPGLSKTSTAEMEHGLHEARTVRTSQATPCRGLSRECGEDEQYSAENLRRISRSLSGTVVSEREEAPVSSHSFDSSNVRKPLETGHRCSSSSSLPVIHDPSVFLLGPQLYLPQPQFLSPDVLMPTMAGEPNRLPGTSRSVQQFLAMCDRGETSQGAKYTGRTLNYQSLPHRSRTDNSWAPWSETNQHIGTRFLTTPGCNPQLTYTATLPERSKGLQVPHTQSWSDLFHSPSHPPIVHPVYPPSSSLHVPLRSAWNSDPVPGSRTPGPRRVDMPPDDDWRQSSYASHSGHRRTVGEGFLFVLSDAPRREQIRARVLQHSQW
UniProt O94782, 54-73: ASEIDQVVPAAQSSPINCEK
UniProt P18206: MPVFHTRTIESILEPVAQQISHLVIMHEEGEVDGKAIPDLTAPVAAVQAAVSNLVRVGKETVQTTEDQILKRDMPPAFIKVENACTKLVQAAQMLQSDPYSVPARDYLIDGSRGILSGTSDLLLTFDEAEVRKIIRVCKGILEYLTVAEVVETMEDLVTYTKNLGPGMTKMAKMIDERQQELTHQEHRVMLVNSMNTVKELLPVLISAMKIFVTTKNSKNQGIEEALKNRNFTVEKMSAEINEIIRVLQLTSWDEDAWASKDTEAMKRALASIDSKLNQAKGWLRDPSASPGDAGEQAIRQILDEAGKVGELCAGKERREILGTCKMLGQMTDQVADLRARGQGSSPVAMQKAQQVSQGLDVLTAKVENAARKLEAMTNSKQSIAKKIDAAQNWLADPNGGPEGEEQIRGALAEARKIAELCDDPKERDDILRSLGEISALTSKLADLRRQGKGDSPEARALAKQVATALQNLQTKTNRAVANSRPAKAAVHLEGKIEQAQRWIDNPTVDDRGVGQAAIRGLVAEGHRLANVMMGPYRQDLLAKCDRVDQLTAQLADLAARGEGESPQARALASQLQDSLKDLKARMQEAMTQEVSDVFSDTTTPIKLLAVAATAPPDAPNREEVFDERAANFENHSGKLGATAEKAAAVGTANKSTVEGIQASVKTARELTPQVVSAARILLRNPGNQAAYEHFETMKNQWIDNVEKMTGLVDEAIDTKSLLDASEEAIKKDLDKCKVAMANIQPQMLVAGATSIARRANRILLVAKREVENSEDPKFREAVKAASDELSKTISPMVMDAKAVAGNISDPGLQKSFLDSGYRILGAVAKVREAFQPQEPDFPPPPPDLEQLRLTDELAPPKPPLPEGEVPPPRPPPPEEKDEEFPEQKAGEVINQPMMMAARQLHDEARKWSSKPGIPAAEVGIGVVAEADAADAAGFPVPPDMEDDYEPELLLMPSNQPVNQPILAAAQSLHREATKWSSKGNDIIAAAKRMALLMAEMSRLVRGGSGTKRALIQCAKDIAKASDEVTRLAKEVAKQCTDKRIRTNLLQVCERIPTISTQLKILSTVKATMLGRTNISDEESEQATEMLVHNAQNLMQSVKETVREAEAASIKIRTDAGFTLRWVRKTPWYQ
UniProt Q9UPT9: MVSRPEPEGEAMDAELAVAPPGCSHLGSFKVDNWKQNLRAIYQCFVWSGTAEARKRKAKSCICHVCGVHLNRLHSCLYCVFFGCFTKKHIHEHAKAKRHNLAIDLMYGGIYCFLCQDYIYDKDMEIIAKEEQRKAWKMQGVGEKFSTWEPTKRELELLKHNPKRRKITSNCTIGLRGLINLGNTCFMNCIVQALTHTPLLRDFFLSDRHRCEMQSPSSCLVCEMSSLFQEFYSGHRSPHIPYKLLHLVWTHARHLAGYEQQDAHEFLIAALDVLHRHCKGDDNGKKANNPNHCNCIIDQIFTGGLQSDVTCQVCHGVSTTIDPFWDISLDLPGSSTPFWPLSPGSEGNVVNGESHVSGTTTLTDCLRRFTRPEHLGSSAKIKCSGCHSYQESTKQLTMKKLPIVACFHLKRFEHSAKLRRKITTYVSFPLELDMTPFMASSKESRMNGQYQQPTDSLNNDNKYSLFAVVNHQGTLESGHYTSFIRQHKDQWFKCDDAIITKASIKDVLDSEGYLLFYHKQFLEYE
UniProt Q16831, 139-164: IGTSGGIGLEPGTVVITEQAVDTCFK
UniProt Q08AM6, 360-390: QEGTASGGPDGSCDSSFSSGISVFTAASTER
UniProt O94763, whole entry, looked up: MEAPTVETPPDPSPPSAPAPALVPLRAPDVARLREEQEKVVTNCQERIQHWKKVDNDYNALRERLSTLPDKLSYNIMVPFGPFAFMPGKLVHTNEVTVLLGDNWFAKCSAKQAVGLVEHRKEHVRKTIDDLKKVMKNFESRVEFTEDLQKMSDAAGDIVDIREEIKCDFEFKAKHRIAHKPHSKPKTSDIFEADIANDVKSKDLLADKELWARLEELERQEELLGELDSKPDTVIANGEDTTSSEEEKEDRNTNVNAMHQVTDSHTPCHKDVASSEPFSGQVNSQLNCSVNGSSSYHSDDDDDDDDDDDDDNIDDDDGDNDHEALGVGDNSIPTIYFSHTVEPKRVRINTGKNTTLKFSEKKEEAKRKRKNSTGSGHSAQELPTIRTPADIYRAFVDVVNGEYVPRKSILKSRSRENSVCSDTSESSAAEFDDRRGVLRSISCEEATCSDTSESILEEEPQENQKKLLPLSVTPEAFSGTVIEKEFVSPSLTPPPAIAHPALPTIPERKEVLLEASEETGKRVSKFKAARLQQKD
UniProt Q9BZI7: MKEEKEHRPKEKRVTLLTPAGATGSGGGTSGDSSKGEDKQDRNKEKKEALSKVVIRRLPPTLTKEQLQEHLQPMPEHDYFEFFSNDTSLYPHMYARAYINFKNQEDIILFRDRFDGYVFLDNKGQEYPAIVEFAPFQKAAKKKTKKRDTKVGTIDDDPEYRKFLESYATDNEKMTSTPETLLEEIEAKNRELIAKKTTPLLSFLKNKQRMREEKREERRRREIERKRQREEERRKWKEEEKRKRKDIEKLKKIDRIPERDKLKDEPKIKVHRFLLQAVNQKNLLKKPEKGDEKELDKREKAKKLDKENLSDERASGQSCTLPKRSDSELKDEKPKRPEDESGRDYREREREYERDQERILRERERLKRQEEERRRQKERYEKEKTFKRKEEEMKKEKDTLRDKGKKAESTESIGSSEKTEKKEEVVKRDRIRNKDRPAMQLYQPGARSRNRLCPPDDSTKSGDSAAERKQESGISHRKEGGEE
UniProt Q9UK41: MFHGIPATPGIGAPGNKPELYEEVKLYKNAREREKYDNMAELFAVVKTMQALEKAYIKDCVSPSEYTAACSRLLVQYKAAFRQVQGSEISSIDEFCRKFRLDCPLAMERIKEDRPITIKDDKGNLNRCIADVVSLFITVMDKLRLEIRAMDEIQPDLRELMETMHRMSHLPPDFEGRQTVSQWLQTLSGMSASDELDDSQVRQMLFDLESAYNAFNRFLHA
UniProt Q969X6: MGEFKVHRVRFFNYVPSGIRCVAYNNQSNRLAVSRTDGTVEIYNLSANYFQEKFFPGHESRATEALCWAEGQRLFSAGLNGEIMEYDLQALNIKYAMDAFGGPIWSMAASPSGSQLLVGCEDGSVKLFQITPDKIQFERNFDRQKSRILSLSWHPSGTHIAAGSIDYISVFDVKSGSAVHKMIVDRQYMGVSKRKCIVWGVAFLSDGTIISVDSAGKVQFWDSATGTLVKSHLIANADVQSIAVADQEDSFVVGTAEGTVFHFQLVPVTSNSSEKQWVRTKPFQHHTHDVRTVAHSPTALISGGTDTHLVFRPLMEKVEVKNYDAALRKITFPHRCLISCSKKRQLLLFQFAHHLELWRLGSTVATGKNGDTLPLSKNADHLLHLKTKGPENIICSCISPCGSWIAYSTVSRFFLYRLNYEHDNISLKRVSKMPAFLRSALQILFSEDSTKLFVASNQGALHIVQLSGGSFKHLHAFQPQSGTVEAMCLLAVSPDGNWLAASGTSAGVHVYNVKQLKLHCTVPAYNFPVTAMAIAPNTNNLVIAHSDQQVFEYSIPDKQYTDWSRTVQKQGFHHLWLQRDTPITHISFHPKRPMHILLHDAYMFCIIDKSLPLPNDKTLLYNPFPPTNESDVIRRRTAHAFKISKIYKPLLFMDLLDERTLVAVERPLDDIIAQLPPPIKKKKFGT

What was measured:
[1] = compound: ClCC(=O)N[C@H]1CCCc2ccccc12; test: log2 mean competition ratio of IA-DTB cysteine labelling (DMSO/compound) (log2 ratio); higher = stronger cysteine engagement by compound; conditions: treatment time: 4 h, cell line lysate: HEK293T
Description: (§1)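 IA-DTB competitive cysteine chemoproteomics in HEK293T RIPA lysate. Lysates were treated with compound 29 or 30 at 50 or 200 µM for 4 h, then IA-DTB (500 µM, 1 h), trypsin-digested, NeutrAvidin-enriched and analysed by diaPASEF. Competition ratio = intensity DMSO / intensity compound (n=4 treated, n=64 DMSO); binding: mean log2 CR ≥ 1 and p ≤ 0.05 plus QC filters. Target is the cysteine site.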

[2] = compound: ClCC(=O)N[C@@H]1CCCc2ccccc12; test: as above; conditions: treatment time: 4 h, cell line lysate: HEK293T
Description: as §1

Target | log2 mean competition ratio ([1]; 200 µM) | log2 mean competition ratio ([2]; 50 µM) | log2 mean competition ratio ([2]; 200 µM) | log2 mean competition ratio ([1]; 50 µM)
UPF1 C165 (UniProt Q92900) | -0.188 |  |  | 
USP48 C39 (UniProt Q86UV5) | 0.148 | -0.0688 | -0.0915 | 0.143
USP54 C1394 (UniProt Q70EL1) | 0.391 | -0.283 | 0.115 | 0.109
USP1 C71 (UniProt O94782) | -0.114 |  |  | -0.201
UTP23 C60 (UniProt Q9BRU9) | 0.183 |  | 0.0534 | -0.201
UGP2 C123 | 0.0177 |  |  | 0.0375
UBR5 C2084 (UniProt O95071) | -0.12 |  |  | 0.29
UNC13B C1028 (UniProt O14795) | -0.587 |  |  | 0.0084
UTP18 C302 (UniProt Q9Y5J1) | -0.301 | 0.0405 | -0.277 | -0.42
VLDLR C331 (UniProt P98155) | 0.589 |  |  | 0.165
VPS13C C1372 (UniProt Q709C8) | -0.313 |  |  | 0.331
VEZT C665 | 0.0383 |  |  | -0.0916
UTRN C3023 (UniProt P46939) | 0.0129 |  |  | 0.0632
VCL C85 (UniProt P18206) | -0.162 |  |  | 0.0456
VPS33A C121 (UniProt Q96AX1) | 0.252 |  |  | 0.115
USP22 C44 (UniProt Q9UPT9) | -0.127 |  |  | 0.538
UPP1 C162 (UniProt Q16831) | -0.0676 |  |  | 0.151
VAC14 C372 (UniProt Q08AM6) | -0.146 |  |  | -0.278
UPF1 C852 (UniProt Q92900) | -0.126 |  |  | 0.232
VCAN C3296 | -0.214 |  |  | -0.281
URI1 C167 (UniProt O94763) | -0.495 |  |  | -0.396
UPF3B C319 (UniProt Q9BZI7) | -0.00942 |  |  | 0.267
VPS11 C128 (UniProt Q9H270) | 0.236 |  |  | 0.192
VCPIP1 C397 (UniProt Q96JH7) | 0.0568 |  |  | -0.174
VPS28 C103 (UniProt Q9UK41) | 0.158 |  |  | 0.026
USP28 C733 (UniProt Q96RU2) | -0.025 |  |  | -0.355
UTP4 C67 (UniProt Q969X6) | 0.0343 |  |  | 0.063

Looked up one by one from above, 2 records:
Target | log2 mean competition ratio ([1]; 200 µM) | log2 mean competition ratio ([2]; 50 µM) | log2 mean competition ratio ([2]; 200 µM) | log2 mean competition ratio ([1]; 50 µM)
VLDLR C331 (UniProt P98155) | 0.589 |  |  | 0.165
VPS33A C121 (UniProt Q96AX1) | 0.252 |  |  | 0.115
